Data published in paper PMC11065422.
No constants are given. Whether binding was seen depends on the method and setting. In cells and extracts the contact can be indirect. These calls come from enrichment with a bait or labelling near it, and not all partners need be listed.

Target: Numb (mouse (endogenous in C2C12))
Assay: affinity purification with mass spectrometry; IP of endogenous Numb with goat polyclonal anti-Numb (control: goat IgG) from lysates of 5-day differentiated C2C12 myotubes; 25 mM Tris-HCl pH 7.2, 150 mM NaCl, 1 mM EDTA, 5% glycerol, 0.1% Triton X-100, 4°C; Protein A/G Plus; eluted with 0.3% SDS at 37°C; LC/MS/MS of tryptic peptides; seven independent IPs

Binder | binding
Nuclear-interacting partner of Alk (protein, UniProt Q80YV2 1-501) MAATSEGPLFAASIEKTWGSVVRSPEGTPQKVRELIDEGIVPEEGGTEPKDTAATFQSVDGSPQAEQSPLESTSKEAFFHRVETFSSLKWAGKPPELSPLICAKYGWVTVECDMLKCSSCQAFLCASLQPTFDFGRYKERCAELKKSLCSAHEKFCFWPDSPSPDRFGMLPLGEPAVLISEFLDRFQSLCHLDLQLPSLRPEDLKTMCLTEDAVSALLHLLEDELDFHADDRKTTSKLGSDVQVQATACVLSLCGWACSSLEPTQLSLITCYQCMRKVGLWGFQQIESSMTDLEASFGLTSSPIPGVEGRPEHFPLVPESPRRMMTRSQDATVSPGSEQSEKSPGPIVSRTRSWESSSPVDRPELEAASPTTRSRPVTRSMGTGDSAGVEVPSSPLRRTKRARLCSSSSSDTSPRSFFDPTSQHRDWCPWVNITLVKETKENGETEVDACTPAEPGWKAVLTILLAHKRSNQPAETDSMSLSEKSRKVFRIFRQWESSSSS | binds
Septin 2 (protein, UniProt P42208 1-361) MSKQQPTQFINPETPGYVGFANLPNQVHRKSVKKGFEFTLMVVGESGLGKSTLINSLFLTDLYPERIIPGAAEKIERTVQIEASTVEIEERGVKLRLTVVDTPGYGDAINCRDCFKTIISYIDEQFERYLHDESGLNRRHIIDNRVHCCFYFISPFGHGLKPLDVAFMKAIHNKVNIVPVIAKADTLTLKERERLKKRILDEIEEHSIKIYHLPDAESDEDEDFKEQTRLLKASIPFSVVGSNQLIEAKGKKVRGRLYPWGVVEVENPEHNDFLKLRTMLITHMQDLQEVTQDLHYENFRSERLKRGGRKVENEDMNKDQILLEKEAELRRMQEMIARMQAQMQMQMQGGDSDSGALGQHV | binds
E3 ubiquitin ligase Traf7 (enzyme, UniProt Q922B6 1-594) MPPINTPRRSDSAISVRSLHSESSMSLRSTFSLPEEEEEPEPLVFAEQPSVKLCCQLCCSVFKDPVITTCGHTFCRRCALKSEKCPVDNAKLTVVVNNIAVAEQIGELFIHCRHGCHAAGTGKPGVFEVDPRGCPFTIKLSARKDHESSCDYRPVRCPNNPSCPPLLKMNLEAHLKECEHIKCPHSKYGCTFIGNQDTYETHLETCRFEGLKEFLQQTDDRFHEMHVALAQKDQEIAFLRSMLGKLSEKIDQLEKSLELKFDVLDENQSKLSEDLMEFRRDASMLNDELSHINARLNMGILGSYDPQQIFKCKGTFVGHQGPVWCLCVYSMGDLLFSGSSDKTIKVWDTCTTYKCQKTLEGHDGIVLALCIQGCKLYSGSADCTIIVWDIQNLQKVNTIRAHDNPVCTLVSSHNMLFSGSLKAIKVWDIVGTELKLKKELTGLNHWVRALVAAQSYLYSGSYQTIKIWDIRTLDCIHVLQTSGGSVYSIAVTNHHIVCGTYENLIHVWDIESKEQVRTLTGHVGTVYALAVISTPDQTKVFSASYDRSLRVWSMDNMICTQTLLRHQGSVTALAVSRGRLFSGAVDSTVKVWTC | binds
Septin 9 (protein, UniProt Q80UG5 1-583) MKKSYSGVTRTSSGRLRRLADPTGPALKRSFEVEEIEPPNSTPPRRVQTPLLRATVASSSQKFQDLGVKNSEPAARLVDSLSQRSPKPSLRRVELAGAKAPEPMSRRTEISIDISSKQVESTASAAGPSRFGLKRAEVLGHKTPEPVPRRTEITIVKPQESVLRRVETPASKIPEGSAVPATDAAPKRVEIQVPKPAEAPNCPLPSQTLENSEAPMSQLQSRLEPRPSVAEVPYRNQEDSEVTPSCVGDMADNPRDAMLKQAPASRNEKAPMEFGYVGIDSILEQMRRKAMKQGFEFNIMVVGQSGLGKSTLINTLFKSKISRKSVQPTSEERIPKTIEIKSITHDIEEKGVRMKLTVIDTPGFGDHINNENCWQPIMKFINDQYEKYLQEEVNINRKKRIPDTRVHCCLYFIPATGHSLRPLDIEFMKRLSKVVNIVPVIAKADTLTLEERVYFKQRITADLLSNGIDVYPQKEFDEDAEDRLVNEKFREMIPFAVVGSDHEYQVNGKRILGRKTKWGTIEVENTTHCEFAYLRDLLIRTHMQNIKDITSNIHFEAYRVKRLNEGNSAMANGIEKEPEAQEM | binds

Now from value to binder:

binding | Binder
binds | Homer protein homologue (protein, UniProt Q99JP6 1-356) MSTAREQPIFSTRAHVFQIDPTTKRNWIPAGKHALTVSYFYDATRNVYRIISIGGAKAIINSTVTPNMTFTKTSQKFGQWADSRANTVYGLGFASEQQLTQFAEKFQEVKEAARLAREKSQDGGEFTSTGLALASHQVPPSPLVSTNGPGEEKLFRSQSADTPGPTERERLKKMLSEGSVGEVQWEAEFFALQDSNQRLAGALREANAAATQWRQQLEVQRAEAELLRQRVAELEAQVAVEPVRAGEKEATSQSVEQLEARVQTKDQTLKNQSTGTREAPDTAEREETQQQVQDLETRNAELEQQLRSMECNLEEARAERERARAEVGRAAQLLDVRLFELSELREGLARLAEAAP
binds | Septin 10 (protein, UniProt Q8C650 1-452) MASCDEIKEHPRSLSMCGHVGFESLPDQLVDRSIEQGFCFNILCVGETGIGKSTLINTLFNTNFEELESSHFCPCVRLRAQTYELQESNVRLKLTIVNTVGFGDQINKEDSYQPIVDYIDDQFEAYLQEEVKIKRALFNYHDSRIHVCLYFIAPTGHSLRTLDLLTMKSLDNKVNIIPLIAKADTISKSELQKFKMKLMNELVINGVQIYQFPTDDDTTSKINGAMNGHLPFAVVGSMDEIKVGNKMVKGRQYPWGIVQVENENHCDFVKLREMLICTNMEDLREQTHMRHYELYRRCKLQEMGFVDMGPENKPLSLQETYEAKRHEFYGERQRKEEQMKQMFVQRVKEKEAILKEAERELQAKFEHLKRIHQEERMKLEEKRRMLEEESVAFAKKKATCELFPNQSFLASGSSIRKDKDRKKADGASAFCDCLTAQESVRLCISSPRKDMD
binds | cAMP specific 3–5-cyclic phosphodiesterase 4D (enzyme, UniProt Q01063 1-747) MERDTCDVLSRSKSASEETLHSCNEEEDPFRGMEPYLVRRLSSRSIQLPPLAFRQLEQADLRSESENIPRPTSLPLKILPLIAVTSADSSGFDVDNGTSAGRSPLDPMTSPGSGLILQANFVHSQRRESFLYRSDSDYDLSPKSMSRNSSIASDIHGDDLIVTPFAQVLASLRTVRNNFAALTNLQDRAPSKRSPMCNQPSINKATITEEAYQKLASETLEELDWCLDQLETLQTRHSVSEMASNKFKRMLNRELTHLSEMSRSGNQVSEYISNTFLDKQHEVEIPSPTQKEKEKKKRPMSQISGVKKLMHSSSLTNSCIPRFGVKTEQEDVLAKELEDVNKWGLHVFRIAELSGNRPLTVIMHTIFQERDLLKTFKIPVDTLITYLMTLEDHYHADVAYHNNIHAADVVQSTHVLLSTPALEAVFTDLEILAAIFASAIHDVDHPGVSNQFLINTNSELALMYNDSSVLENHHLAVGFKLLQEENCDIFQNLTKKQRQSLRKMVIDIVLATDMSKHMNLLADLKTMVETKKVTSSGVLLLDNYSDRIQVLQNMVHCADLSNPTKPLQLYRQWTDRIMEEFFRQGDRERERGMEISPMCDKHNASVEKSQVGFIDYIVHPLWETWADLVHPDAQDILDTLEDNREWYQSTIPQSPSPAPDDQEEGRQGQTEKFQFELTLEEDCESDTEKDSGSQVEEDTSCSDSKTLCTQDSESTEIPLDEQVEEEAVAEEESQPETCVPDDCCPDT
binds | Septin 7 (protein, UniProt O55131 1-436) MSVSARSAAAEERSVNCGTMAQPKNLEGYVGFANLPNQVYRKSVKRGFEFTLMVVGESGLGKSTLINSLFLTDLYSPEYPGPSHRIKKTVQVEQSKVLIKEGGVQLLLTIVDTPGFGDAVDNSNCWQPVIDYIDSKFEDYLNAESRVNRRQMPDNRVQCCLYFIAPSGHGLKPLDIEFMKRLHEKVNIIPLIAKADTLTPEECQQFKKQIMKEIQEHKIKIYEFPETDDEEENKLVKKIKDRLPLAVVGSNTIIEVNGKRVRGRQYPWGVAEVENGEHCDFTILRNMLIRTHMQDLKDVTNNVHYENYRSRKLAAVTYNGVDNNKNKGQLTKSPLAQMEEERREHVAKMKKMEMEMEQVFEMKVKEKVQKLKDSEAELQRRHEQMKKNLEAQHKELEEKRRQFEEEKANWEAQQRILEQQNSSRTLEKNKKKGKIF
